Where a name gives a salt, the structure may show the parent alone. ± gives the standard deviation of the averaged measurements. The list shows a part of the results. Most values come without repeats; read them as rough.
System: RAW 264.7
Test: cell viability (MTT) relative to vehicle control; higher = more viable cells
Details: stimulus: HMGB1 5 ug/ml, 18 h
[1] = compound concentration: 1 ug/ml

| Compound | cell viability (compound concentration: 3 uM) [%] | cell viability [1] [%] |
| --- | --- | --- |
| Oc1c(Br)cc(Br)c2cccnc12 | 98.2 | – |
| Nc1nc(F)nc2c1ncn2[C@@H]1O[C@H](COP(=O)(O)O)[C@@H](O)[C@@H]1O | 119 ± 17 | – |
| CCOC(=O)N1CCC(=C2c3ccc(Cl)cc3CCc3cccnc32)CC1 | 97.53 ± 0.67 | – |
| CCOC(=O)N1CCC(=C2c3ccc(Cl)cc3CCc3cccnc32)CC1 [Loratadine] | 96.8 ± 3.2 | – |
| NC(=O)c1ccccc1O | 100 | – |
| CCCCN1CCC(n2c(=O)[nH]c3ccccc32)CC1 [NS 521 oxalate] | 106 | – |
| C[C@]12CCC(=O)C=C1CC[C@@H]1[C@@H]2C(=O)C[C@@]2(C)[C@H]1CC[C@]2(O)C(=O)CO [Cortisone] | 98.5 ± 1.3 | – |
| C[C@]12CCC(=O)C=C1CC[C@@H]1[C@@H]2C(=O)C[C@@]2(C)[C@H]1CC[C@]2(O)C(=O)CO | 106 ± 4.8 | – |
| COC(=O)[C@H](c1ccccc1Cl)N1CCc2sccc2C1 [Clopidogrel] | 102 | – |
| COC(=O)[C@H](c1ccccc1Cl)N1CCc2sccc2C1 | 97.2 | – |
| COCCCC/C(=N\OCCN)c1ccc(C(F)(F)F)cc1 [Fluvoxamine maleate] | 98.6 ± 1.6 | – |
| COCCCC/C(=N\OCCN)c1ccc(C(F)(F)F)cc1 [Fluvoxamine] | 98.4 | – |
| O=C1/C(=C/c2cccs2)CC/C1=C\c1cccs1 | 114 | – |
| COc1cc2nc(N3CCN(C(=O)OCc4ccccc4)[C@H](C(=O)NC(C)(C)C)C3)nc(N)c2cc1OC | 119 | – |
| CN(C)[C@@H]1C(O)=C(C(N)=O)C(=O)[C@@]2(O)C(O)=C3C(=O)c4c(O)cccc4[C@@](C)(O)[C@H]3C[C@@H]12 [Tetracycline] | 94.7 | – |
| CN(C)[C@@H]1C(O)=C(C(N)=O)C(=O)[C@@]2(O)C(O)=C3C(=O)c4c(O)cccc4[C@@](C)(O)[C@H]3C[C@@H]12 [Tetracycline hydrochloride] | 87.9 | 89.9 |
| CN(C)[C@@H]1C(O)=C(C(N)=O)C(=O)[C@@]2(O)C(O)=C3C(=O)c4c(O)cccc4[C@@](C)(O)[C@H]3C[C@@H]12 | 103 | – |
| O=C(O)C1CCCNC1 (racemic) [(±)-Nipecotic acid] | 103 | – |
| C[C@H](N[C@@H](CCc1ccccc1)C(=O)O)C(=O)N1CCC[C@H]1C(=O)O | 95.3 | – |
| C[C@H](N[C@@H](CCc1ccccc1)C(=O)O)C(=O)N1CCC[C@H]1C(=O)O [Enalaprilat dihydrate] | 101 | – |
| C[C@H](N[C@@H](CCc1ccccc1)C(=O)O)C(=O)N1CCC[C@H]1C(=O)O [Enalaprilat] | 115 | – |

Reprinted at random: 2 records from the list, in no set order.

| Compound | cell viability (compound concentration: 3 uM) [%] | cell viability [1] [%] |
| --- | --- | --- |
| CN(C)[C@@H]1C(O)=C(C(N)=O)C(=O)[C@@]2(O)C(O)=C3C(=O)c4c(O)cccc4[C@@](C)(O)[C@H]3C[C@@H]12 [Tetracycline] | 94.7 | – |
| C[C@]12CCC(=O)C=C1CC[C@@H]1[C@@H]2C(=O)C[C@@]2(C)[C@H]1CC[C@]2(O)C(=O)CO [Cortisone] | 98.5 ± 1.3 | – |

(continued)

| Compound | cell viability (compound concentration: 3 uM) [%] | cell viability [1] [%] |
| --- | --- | --- |
| CCN(CC)CCNC(=O)c1ccc(NS(C)(=O)=O)cc1 [Sematilide monohydrochloride monohydrate] | 101 | – |
| CC[C@H](C)[C@H](NC(=O)OCC1c2ccccc2-c2ccccc21)C(=O)O [FMOC-L-Isoleucine] | – | 105 |
| O=C1N[C@H](C(=O)O)CS1 [4-Thiazolidinecarboxylic acid, 2-oxo-, (R)- [CAS]] | 93.2 | – |
| CC(=O)OCC(=O)[C@@]1(O)[C@@H](C)C[C@H]2[C@@H]3CCC4=CC(=O)C=C[C@]4(C)[C@@]3(F)[C@@H](O)C[C@@]21C | 129 | – |
| CC[C@H](/C=C/[C@@H](C)[C@H]1CC[C@H]2[C@@H]3CC=C4C[C@@H](O)CC[C@]4(C)[C@H]3CC[C@]12C)C(C)C [Stigmasterol] | – | 103 |
| O=C(O)c1cn(-c2ccc(F)cc2)c2cc(N3CCNCC3)c(F)cc2c1=O | 106 | – |
| O=C(O)c1cn(-c2ccc(F)cc2)c2cc(N3CCNCC3)c(F)cc2c1=O [Sarafloxacin] | 98.6 ± 6.9 | – |
| O=C(O)Cc1ccc(-c2ccccc2)cc1 [Felbinac] | 101 | – |
| C[C@@H]1C[C@H]2[C@@H]3C[C@H](F)C4=CC(=O)C=C[C@]4(C)[C@@]3(F)[C@@H](O)C[C@]2(C)[C@@]1(O)C(=O)CO | 109 | – |
| C[C@@H]1C[C@H]2[C@@H]3C[C@H](F)C4=CC(=O)C=C[C@]4(C)[C@@]3(F)[C@@H](O)C[C@]2(C)[C@@]1(O)C(=O)CO [Flumethasone] | 133 | – |
| N#Cc1ccc(C(c2ccc(C#N)cc2)n2cncn2)cc1 | 96.1 | – |
| N#Cc1ccc(C(c2ccc(C#N)cc2)n2cncn2)cc1 [Letrozole] | 101 ± 7.1 | – |
| Clc1ccc(CCC(Cn2ccnc2)Sc2c(Cl)cccc2Cl)cc1 (centres undefined) [Butoconazole nitrate] | 141 | – |
| C[N+]1(C)CCC(OC(=O)C(O)(c2ccccc2)C2CCCC2)C1 (centres undefined) [Glycopyrrolate] | 130 | – |
| C[N+]1(C)CCC(OC(=O)C(O)(c2ccccc2)C2CCCC2)C1 (centres undefined) | 98.2 ± 5.7 | – |
| Oc1ccc2ccccc2c1 [beta-NAPHTHOL] | 115 | – |
| CN1CCN(C2=Nc3ccccc3Oc3ccc(Cl)cc32)CC1 | 95.82 ± 0.62 | – |
| CN1CCN(C2=Nc3ccccc3Oc3ccc(Cl)cc32)CC1 [Loxapine succinate] | 96.1 ± 1.7 | – |
| NCc1ccccc1CC(=O)N[C@@H]1C(=O)N2C(C(=O)O)=C(CSc3nnnn3CC(=O)O)CS[C@H]12 [Ceforanide] | 117 | – |
| N=C(NCCCCCCNC(=N)NC(=N)Nc1ccc(Cl)cc1)NC(=N)Nc1ccc(Cl)cc1 [Chlorhexidine] | 77.1 | – |
| N=C(NCCCCCCNC(=N)NC(=N)Nc1ccc(Cl)cc1)NC(=N)Nc1ccc(Cl)cc1 | 71.3 ± 5.1 | – |

| Compound | cell viability (compound concentration: 3 uM) [%] | cell viability [1] [%] |
| --- | --- | --- |
| COc1c2occc2cc2ccc(=O)oc12 [8-Methoxypsoralen] | – | 95.4 |
| COc1c2occc2cc2ccc(=O)oc12 | 112 | – |
| CC1(C)OC(=O)C(OCC2CC2)=C1c1ccc(S(C)(=O)=O)cc1 | 116 | – |
| CC(N/C(=N\C#N)Nc1ccncc1)C(C)(C)C (centres undefined) [Pinacidil] | 99.5 ± 7.1 | – |
| CC(N/C(=N\C#N)Nc1ccncc1)C(C)(C)C (centres undefined) | 109 | – |
| CC(N/C(=N\C#N)Nc1ccncc1)C(C)(C)C (centres undefined) [Pinacidil monohydrate] | 102 | – |
| Cc1c(-c2ccccc2)oc2cc(O)ccc2c1=O | – | 90.7 |
| O=C1CC(c2ccccc2O)Oc2ccc(O)cc21 (centres undefined) [2',6-Dihydroxyflavanone] | – | 85.1 |
| CCN(CC)CCOC(=O)C1(C2CCCCC2)CCCCC1 [Dicyclomine hydrochloride] | 100 ± 9 | – |
| CCN(CC)CCOC(=O)C1(C2CCCCC2)CCCCC1 | 97.6 | – |
| CNCCc1c2cc(O)ccc2n2oc(=O)c(=O)oc12 [N-Methylserotonin oxalate] | – | 101 |
| CC(=O)Oc1ccccc1C(=O)Nc1ncc([N+](=O)[O-])s1 | 94 | – |
| Cc1[nH]ccc2c1[nH]c1cc(=O)ccc12 [Harmol hydrochloride monohydrate] | 112 | – |
| Cc1[nH]ccc2c1[nH]c1cc(=O)ccc12 [Harmol hydrochloride dihydrate] | – | 91 |
| Oc1cc(O)c2c(c1)O[C@H](c1ccc(O)c(O)c1)[C@@H](O)C2 | 109 | – |
| Oc1cc(O)c2c(c1)O[C@H](c1ccc(O)c(O)c1)[C@@H](O)C2 [(+)-Catechin Hydrate] | 84.4 | – |
| C[N+]1(C)CCC(OC(=O)C(c2ccccc2)c2ccccc2)CC1 [4-DAMP methiodide] | 100 | – |
| CN(C)CCCN1c2ccccc2Sc2ccc(C(F)(F)F)cc21 | 102 | – |
| CN(C)CCCN1c2ccccc2Sc2ccc(C(F)(F)F)cc21 [Triflupromazine hydrochloride] | 103 ± 3.3 | – |
| COc1ccc([C@@H]2CC(=O)c3c(O)cc(O)cc3O2)cc1O [Hesperetin] | – | 94.4 |
| CC[N+](C)(CC)CCOC(=O)C(O)(c1ccccc1)C1CCCCC1 (centres undefined) | 96.5 ± 5.3 | – |

Nothing new here: entries from further up.

| Compound | cell viability (compound concentration: 3 uM) [%] | cell viability [1] [%] |
| --- | --- | --- |
| CC(N/C(=N\C#N)Nc1ccncc1)C(C)(C)C (centres undefined) [Pinacidil monohydrate] | 102 | – |
| Cc1c(-c2ccccc2)oc2cc(O)ccc2c1=O | – | 90.7 |
| O=C1CC(c2ccccc2O)Oc2ccc(O)cc21 (centres undefined) [2',6-Dihydroxyflavanone] | – | 85.1 |
| CCN(CC)CCOC(=O)C1(C2CCCCC2)CCCCC1 [Dicyclomine hydrochloride] | 100 ± 9 | – |

Following part:

| Compound | cell viability (compound concentration: 3 uM) [%] | cell viability [1] [%] |
| --- | --- | --- |
| N=C(NC(=O)c1nc(Cl)c(N)nc1N)Nc1ccccc1 [Phenamil methanesulfonate] | 100 | – |
| N=C(NC(=O)c1nc(Cl)c(N)nc1N)Nc1ccccc1 [Phenamil] | 108 | – |
| COc1cc(C(=O)OCCCN2CCCN(CCCOC(=O)c3cc(OC)c(OC)c(OC)c3)CC2)cc(OC)c1OC [Dilazep dihydrochloride] | 122 | – |
| COc1cc(C(=O)OCCCN2CCCN(CCCOC(=O)c3cc(OC)c(OC)c(OC)c3)CC2)cc(OC)c1OC [Dilazep] | 98.9 | – |
| COc1cc(C(=O)OCCCN2CCCN(CCCOC(=O)c3cc(OC)c(OC)c(OC)c3)CC2)cc(OC)c1OC [Dilazep hydrochloride] | 101 | – |
| COc1ccc2c(c1)CCC1C2CCC2(C)C(NCCCCCCN3C(=O)C=CC3=O)CCC12 (centres undefined) | 106 | – |
| C[Si](C)(C)c1cn([C@H]2C[C@H](O)[C@@H](CO)O2)c(=O)[nH]c1=O [Xylure] | – | 85.7 |
| O=S(=O)(O)c1cc(N=C=S)ccc1/C=C/c1ccc(N=C=S)cc1S(=O)(=O)O | 142 | – |
| C#CC(N)CCC(=O)O (centres undefined) [gamma-Acetylinic GABA] | 97.3 | – |
| O=C1c2c(O)cccc2Cc2cccc(O)c21 | 104 | – |
| O=C1c2c(O)cccc2Cc2cccc(O)c21 [Anthralin] | 127 | – |
| C/C=C/C(=O)OCC1OC(Oc2cc(O)c3c(=O)cc(-c4ccc(O)c(OC)c4)oc3c2)C(O)C(O)C1O (centres undefined) [Thermopsoside, crotonoyl] | – | 99.1 |
| CC[N+](C)(C)c1cccc(O)c1 [Edrophonium chloride] | 103 ± 3.2 | – |
| CC[N+](C)(C)c1cccc(O)c1 | 105 | – |
| CO[C@@H]1[C@@H](O[C@@H]2O[C@H](C)[C@@H](O[C@H]3C[C@@](C)(O)[C@@H](OC(=O)CC(C)C)[C@H](C)O3)[C@H](N(C)C)[C@H]2O)[C@@H](CC=O)C[C@@H](C)[C@@H](O)/C=C/C=C/C[C@@H](C)OC(=O)C[C@H]1O | 102 | – |
| CC(=O)[C@@]1(O)CC[C@H]2[C@@H]3C=C(Cl)C4=CC(=O)[C@@H]5C[C@@H]5[C@]4(C)[C@H]3CC[C@@]21C | 109 | – |
| Cc1cn([C@H]2C[C@H](O)[C@@H](C)O2)c(=O)[nH]c1=O [5'-Deoxythymidine] | – | 107 |
| Nc1[nH]cnc2ncnc1-2 | 102 | – |
| OC(Cn1cncn1)(Cn1cncn1)c1ccc(F)cc1F | 109 | – |
| OC(Cn1cncn1)(Cn1cncn1)c1ccc(F)cc1F [Fluconazole] | 104 ± 10 | – |
